Our source for the binding values is patent publication US20020045590A1.

By UniProt entry, the sequences of proteins in these tests, tags left out. Where a name states a change or a piece, a line headed by the entry shows the natural chain unless it says otherwise. Residues count along the entry.
UniProt P04386: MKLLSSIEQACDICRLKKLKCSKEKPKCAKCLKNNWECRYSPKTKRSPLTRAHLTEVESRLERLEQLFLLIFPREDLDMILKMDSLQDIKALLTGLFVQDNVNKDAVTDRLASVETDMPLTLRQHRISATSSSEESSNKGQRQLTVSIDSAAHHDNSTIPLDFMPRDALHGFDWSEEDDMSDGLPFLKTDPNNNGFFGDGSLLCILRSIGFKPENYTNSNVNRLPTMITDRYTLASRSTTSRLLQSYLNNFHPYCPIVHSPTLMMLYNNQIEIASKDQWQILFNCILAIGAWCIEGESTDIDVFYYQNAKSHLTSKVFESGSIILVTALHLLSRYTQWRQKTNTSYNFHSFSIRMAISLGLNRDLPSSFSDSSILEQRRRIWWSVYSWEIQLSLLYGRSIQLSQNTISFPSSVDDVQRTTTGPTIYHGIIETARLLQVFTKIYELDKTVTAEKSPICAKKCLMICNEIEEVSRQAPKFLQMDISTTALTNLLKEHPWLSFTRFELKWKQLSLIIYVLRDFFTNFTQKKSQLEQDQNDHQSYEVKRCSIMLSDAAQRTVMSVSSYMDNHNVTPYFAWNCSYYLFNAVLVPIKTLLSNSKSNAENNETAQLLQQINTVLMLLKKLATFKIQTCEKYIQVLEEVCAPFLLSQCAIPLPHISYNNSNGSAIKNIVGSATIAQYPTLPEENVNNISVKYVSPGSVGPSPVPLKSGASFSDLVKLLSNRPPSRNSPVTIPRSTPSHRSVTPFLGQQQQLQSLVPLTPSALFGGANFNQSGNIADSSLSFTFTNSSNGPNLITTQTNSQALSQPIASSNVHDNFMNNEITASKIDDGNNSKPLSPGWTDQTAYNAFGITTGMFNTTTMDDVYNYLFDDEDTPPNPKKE
UniProt Q63622, residues 193-279: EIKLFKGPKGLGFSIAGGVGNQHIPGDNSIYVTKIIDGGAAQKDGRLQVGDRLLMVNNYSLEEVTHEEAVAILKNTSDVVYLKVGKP

No constants are given. Whether binding was seen depends on the method and setting. Some entries that bind do so weakly or less than the wild type.

Assay [1] addresses PDZ domain of nNOS fused in frame with the GAL4 DNA-binding domain (pGBT9-nNOS) (UniProt P04386). In words: yeast two-hybrid.
For assay [2] the target is unchanged. The assay can be described thus: yeast two-hybrid, growth on -LTH medium.

On to “PDZ domain of PSD-93 fused in frame with the GAL4 activation domain (pGAD424-PSD-93) (from UniProt Q63622 193-279)”, for which the binding entry in assay [1] and in assay [2] was “binds” throughout.
